Test results taken from patent publication US20160090556A1, “PRODUCTS COMPRISING MALODOR REDUCTION MATERIALS” (The Procter & Gamble Company, priority 2014, published 2016).

Assay: Melamine formaldehyde PMC leakage
Settings: not given

Compound | Melamine formaldehyde PMC leakage (Comment Code J)
CC(=O)OC12CCCC(C)(CCC3C1CC3(C)C)C2 (stereo not shown) [Material 573] | J (Melamine formaldehyde PMC leakage less than or equal to 5%)
CCCCCC=CC=CC(=O)OCC [Material 951] | J (Melamine formaldehyde PMC leakage less than or equal to 5%)
CCCCCCC[C@@H]1CCC(=O)O1 [Material 886] | J (Melamine formaldehyde PMC leakage less than or equal to 5%)
CCC=CCC=CC=CC(=O)OCC [Material 1000] | J (Melamine formaldehyde PMC leakage less than or equal to 5%)
C=CCCCCCCCCCO [Material 870] | J (Melamine formaldehyde PMC leakage less than or equal to 5%)
CCCCCC(=Cc1ccccc1)CO [Material 721] | J (Melamine formaldehyde PMC leakage less than or equal to 5%)
CCC=CCCOC(=O)CC(C)C [Material 814] | J (Melamine formaldehyde PMC leakage less than or equal to 5%)
CC1C(C)(C)C2CCC3CC(C)(C)OC3C2C1(C)C (stereo not shown) [Material 680] | J (Melamine formaldehyde PMC leakage less than or equal to 5%)
CCCCCC(C=O)=Cc1ccccc1 [Material 724] | J (Melamine formaldehyde PMC leakage less than or equal to 5%)
CC(=O)CCCC(C)CCCC(C)CCCC(C)C (stereo not shown) [Material 782] | J (Melamine formaldehyde PMC leakage less than or equal to 5%)
C=C(C)C1CCC(C)C2=C(C1)C(C)CC2 (stereo not shown) [Material 709] | J (Melamine formaldehyde PMC leakage less than or equal to 5%)
CCC(=O)OC1CC2CC1C1CC=CC21 (stereo not shown) [Material 919] | J (Melamine formaldehyde PMC leakage less than or equal to 5%)
CC(=O)C=CC1C(C)=CCC(C)C1(C)C (stereo not shown) [Material 704] | J (Melamine formaldehyde PMC leakage less than or equal to 5%)
CC1C(C)(C)C2CCC3CC(C)(C)OC3C2C1(C)C (stereo not shown) [Material 679] | J (Melamine formaldehyde PMC leakage less than or equal to 5%)
CCC(=O)C=CC1C(C)=CCCC1(C)C (stereo not shown) [Material 700] | J (Melamine formaldehyde PMC leakage less than or equal to 5%)
CC1CC(C)(c2ccccc2)CO1 (stereo not shown) [Material 1006] | J (Melamine formaldehyde PMC leakage less than or equal to 5%)
CC1C(=O)CC2(C)CCCC(C)(C)C23CC13 (stereo not shown) [Material 804] | J (Melamine formaldehyde PMC leakage less than or equal to 5%)
CC(C)c1ccc2ncccc2c1 [Material 778] | J (Melamine formaldehyde PMC leakage less than or equal to 5%)
C=C1CCC2CC1C2(C)C (stereo not shown) [Material 618] | J (Melamine formaldehyde PMC leakage less than or equal to 5%)
CC(C)=CCCC(C)CCCC(C)C=O (stereo not shown) [Material 757] | J (Melamine formaldehyde PMC leakage less than or equal to 5%)
C=C(C)C1CCC(C)(OC(C)=O)CC1 (stereo not shown) [Material 611] | J (Melamine formaldehyde PMC leakage less than or equal to 5%)
COc1c2ccoc2cc2oc(=O)ccc12 [Material 638] | J (Melamine formaldehyde PMC leakage less than or equal to 5%)
CCCCOC(=O)C(C)OC(=O)CCC (stereo not shown) [Material 595] | J (Melamine formaldehyde PMC leakage less than or equal to 5%)
C=CCCCCCCCCC(=O)OCCCC [Material 599] | J (Melamine formaldehyde PMC leakage less than or equal to 5%)
CC1=CC2C(CC1)C(C)=CCC2C(C)C (stereo not shown) [Material 725] | J (Melamine formaldehyde PMC leakage less than or equal to 5%)
CC(C)CCc1ccc2c(c1)OCC(=O)CO2 [Material 658] | J (Melamine formaldehyde PMC leakage less than or equal to 5%)

Same assay, conditions: class code letter within Comment Code

Compound | Melamine formaldehyde PMC leakage (Comment Code J)
C1CCCCCCCCCCCCC1 [Material 479] | J (Melamine formaldehyde PMC leakage less than or equal to 5%)
O=C1CCCCCCCCCCCCCCCO1 [Material 277] | J (Melamine formaldehyde PMC leakage less than or equal to 5%)
C/C=C1/CC2CC1C1CCC(=O)OC21 (stereo not shown) [Material 353] | J (Melamine formaldehyde PMC leakage less than or equal to 5%)
C=CC(C)(O)CCC=C(C)CCC=C(C)C (stereo not shown) [Material 63] | J (Melamine formaldehyde PMC leakage less than or equal to 5%)
O=C1CCCCCCCCCOCCCCCO1 [Material 76] | J (Melamine formaldehyde PMC leakage less than or equal to 5%)
CCCCCCC1CCCC(=O)O1 (stereo not shown) [Material 459] | J (Melamine formaldehyde PMC leakage less than or equal to 5%)
CC(C=O)Cc1ccc(C(C)(C)C)cc1 (stereo not shown) [Material 162] | J (Melamine formaldehyde PMC leakage less than or equal to 5%)
CCCCCCC1CCCC1=O (stereo not shown) [Material 189] | J (Melamine formaldehyde PMC leakage less than or equal to 5%)
COc1c2ccoc2c(OC)c2oc(=O)ccc12 [Material 199] | J (Melamine formaldehyde PMC leakage less than or equal to 5%)
CC(=O)OCC1CC=C(CCC=C(C)C)CC1 (stereo not shown) [Material 74] | J (Melamine formaldehyde PMC leakage less than or equal to 5%)
CC1CCCCCCCCCCCCC(=O)C1 (stereo not shown) [Material 79] | J (Melamine formaldehyde PMC leakage less than or equal to 5%)
CCCC(=O)OC(C)(C)Cc1ccccc1 [Material 432] | J (Melamine formaldehyde PMC leakage less than or equal to 5%)
CC1=CCC(C(C)CC2CCCC2=O)CC1 (stereo not shown) [Material 69] | J (Melamine formaldehyde PMC leakage less than or equal to 5%)
CC(=O)OC1CC2CC1C1CCCC21 (stereo not shown) [Material 441] | J (Melamine formaldehyde PMC leakage less than or equal to 5%)
CCC(C)c1ccc2ncccc2c1 (stereo not shown) [Material 221] | J (Melamine formaldehyde PMC leakage less than or equal to 5%)
CCCCCCC(CO)C(C)=O (stereo not shown) [Material 106] | J (Melamine formaldehyde PMC leakage less than or equal to 5%)
CC(=O)OCC=C(C)CCC=C(C)CCC=C(C)C [Material 368] | J (Melamine formaldehyde PMC leakage less than or equal to 5%)
CC1(CO)CC1CC1CC2CC2(C)C1(C)C (stereo not shown) [Material 185] | J (Melamine formaldehyde PMC leakage less than or equal to 5%)
CC1=C(CCC(C)C=O)C(C)(C)CCC1 (stereo not shown) [Material 560] | J (Melamine formaldehyde PMC leakage less than or equal to 5%)
CCCCCCCCCCCCCCCC(=O)OCC=C(C)CCC=C(C)C [Material 276] | J (Melamine formaldehyde PMC leakage less than or equal to 5%)
CCCCCCCCCCCCCCCC(=O)OCC [Material 385] | J (Melamine formaldehyde PMC leakage less than or equal to 5%)
O=CCCC=C1CC2CC1C1CCCC21 (stereo not shown) [Material 418] | J (Melamine formaldehyde PMC leakage less than or equal to 5%)

Same assay, conditions: code J of the Comment Code column, Table 1

Compound | Comment Code: Melamine formaldehyde PMC leakage
CC(C=O)=CCC1C(C)=CCCC1(C)C (stereo not shown) [Material 1116] | J (Melamine formaldehyde PMC leakage less than or equal to 5%)

Same assay, conditions: code letter J

Compound | Comment Code: Melamine formaldehyde PMC leakage
CC(=O)OC12CCCC(C)(CCC3C1CC3(C)C)C2 (stereo not shown) [Material 573] | J (Melamine formaldehyde PMC leakage less than or equal to 5%)
CC(=O)OCCC1CCCCC1 [Material 481] | J (Melamine formaldehyde PMC leakage less than or equal to 5%)
C/C=C1/CC2CC1C1CCC(=O)OC21 (stereo not shown) [Material 353] | J (Melamine formaldehyde PMC leakage less than or equal to 5%)
CCC(C)C(=O)N(C)c1ccccc1 (stereo not shown) [Material 314] | J (Melamine formaldehyde PMC leakage less than or equal to 5%)
C/C=C(\C)C(=O)OCCCCCC [Material 909] | J (Melamine formaldehyde PMC leakage less than or equal to 5%)
CC(C)C(=O)OCCc1ccccc1 [Material 958] | J (Melamine formaldehyde PMC leakage less than or equal to 5%)
COc1c2ccoc2c(OC)c2oc(=O)ccc12 [Material 199] | J (Melamine formaldehyde PMC leakage less than or equal to 5%)
CC(C)=CCCC(C)CCOC(=O)c1ccccc1 (stereo not shown) [Material 515] | J (Melamine formaldehyde PMC leakage less than or equal to 5%)
CCCCCCCC(=O)OC/C=C(\C)CCC=C(C)C [Material 308] | J (Melamine formaldehyde PMC leakage less than or equal to 5%)
CC1C(C)(C)C2CCC3CC(C)(C)OC3C2C1(C)C (stereo not shown) [Material 680] | J (Melamine formaldehyde PMC leakage less than or equal to 5%)
CC(=O)OC1CC2CC1C1CCCC21 (stereo not shown) [Material 441] | J (Melamine formaldehyde PMC leakage less than or equal to 5%)
CCOC(=O)OC1C(C)CCC(C)C1C (stereo not shown) [Material 1005] | J (Melamine formaldehyde PMC leakage less than or equal to 5%)
CCC(=O)OC1CC2CC1C1CC=CC21 (stereo not shown) [Material 919] | J (Melamine formaldehyde PMC leakage less than or equal to 5%)
CC1C(C)(C)C2CCC3CC(C)(C)OC3C2C1(C)C (stereo not shown) [Material 679] | J (Melamine formaldehyde PMC leakage less than or equal to 5%)
CCCCCCCC(=O)OCCC(C)C [Material 237] | J (Melamine formaldehyde PMC leakage less than or equal to 5%)
CC1(CO)CC1CC1CC2CC2(C)C1(C)C (stereo not shown) [Material 185] | J (Melamine formaldehyde PMC leakage less than or equal to 5%)
CC1C(=O)CC2(C)CCCC(C)(C)C23CC13 (stereo not shown) [Material 804] | J (Melamine formaldehyde PMC leakage less than or equal to 5%)
CCCCCCCC1(C)OCC(C)O1 (stereo not shown) [Material 838] | J (Melamine formaldehyde PMC leakage less than or equal to 5%)
CC/C=C\CCOC(=O)CCC [Material 540] | J (Melamine formaldehyde PMC leakage less than or equal to 5%)
CC(C)(C)c1ccc(CC=O)cc1 [Material 994] | J (Melamine formaldehyde PMC leakage less than or equal to 5%)
C=CC(C)(C#N)Cc1ccccc1 (stereo not shown) [Material 504] | J (Melamine formaldehyde PMC leakage less than or equal to 5%)
